Our source for the binding values is patent US20180099046A1.

The target in the experiment is cynomolgus monkey sclerostin with a Flag tag (cyno-SOST-Flag) (cynomolgus monkey). The experiment can be described thus: SPR (Biacore). (In general: SPR reads the build-up and loss of mass on a sensor chip optically.)

Results are given in words; binding and its absence hold for the method and conditions named. Binding can be weak; no strength is given.

B1: humanized antibody Ab-5 (antibody, human IgG4 S228P, kappa, V domains shown)
VH: EVQLVQSGAEVKKPGASVKVSCKASGYTFTDYNLDWLRQAPGEGLEWIGDIDPNDGDILYNQKFRDRVTMTTDTSTSTAYMELRSLRSDDTAVYYCARRWAYYFDYWGQGTTVTVSS
VL: DIVMTQSPSSLSASVGDRVTITCKASQSVSNDVAWYQQKPGKSPKLLIYYTSNRFTGVPDRFSGSGSGTDFTLTISSLQPEDFATYFCQQDYSSPVTFGGGTKVEIKR
On to B1, for which the binding result is recorded as “binds”.
